Paper PMC7033311, “The Eaf3 chromodomain acts as a pH sensor for gene expression by altering its binding affinity for histone methylated-lysine residues” (Bioscience Reports, 2020)
Results are given in words; binding and its absence hold for the method and conditions named. Values belong to the substance of their own block, whether it stands above or below them.

The chains behind the UniProt entries cited, without tags or fusion partners. Where a name states a change or a piece, a line headed by the entry shows the natural chain unless it says otherwise. A line that says so, or that is headed by a name, gives the form on record, which may keep a tag or linker. Residues count along the entry.
Eaf3 chromodomain (residues 1-120) W84A (Q12432, form named): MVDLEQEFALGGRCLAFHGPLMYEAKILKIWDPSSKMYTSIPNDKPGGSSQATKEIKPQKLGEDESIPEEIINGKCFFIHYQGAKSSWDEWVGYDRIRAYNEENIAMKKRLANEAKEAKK
Eaf3 chromodomain (residues 1-120) Q82A (Q12432, form named): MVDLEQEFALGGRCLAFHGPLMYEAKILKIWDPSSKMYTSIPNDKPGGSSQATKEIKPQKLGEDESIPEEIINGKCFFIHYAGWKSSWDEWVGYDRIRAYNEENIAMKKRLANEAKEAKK
Eaf3 chromodomain (residues 1-120) W84Y (Q12432, form named): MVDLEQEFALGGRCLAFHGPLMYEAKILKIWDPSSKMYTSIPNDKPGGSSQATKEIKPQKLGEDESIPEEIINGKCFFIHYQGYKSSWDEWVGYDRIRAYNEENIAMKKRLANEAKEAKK
Eaf3 chromodomain (residues 1-120) Y81A (Q12432, form named): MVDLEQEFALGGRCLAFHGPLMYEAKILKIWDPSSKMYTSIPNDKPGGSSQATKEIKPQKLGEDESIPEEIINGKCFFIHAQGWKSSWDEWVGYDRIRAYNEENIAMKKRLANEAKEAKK
Eaf3 chromodomain (residues 1-120) W88A (Q12432, form named): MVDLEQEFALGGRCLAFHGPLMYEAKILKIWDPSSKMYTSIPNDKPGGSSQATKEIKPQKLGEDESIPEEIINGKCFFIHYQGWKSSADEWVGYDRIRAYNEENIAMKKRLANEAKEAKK

Key:
Assay in all cases: SEC; size exclusion chromatograms of wild-type and mutant Eaf3 CD (Superdex75 in the purification); peaks marked D: dimer, M: monomer; both purified
[1] = molecular target: Eaf3 chromodomain (residues 1-120) W84A (Saccharomyces cerevisiae) (UniProt Q12432)
[2] = molecular target: Eaf3 chromodomain (residues 1-120) Q82A (Saccharomyces cerevisiae) (UniProt Q12432)
[3] = molecular target: Eaf3 chromodomain (residues 1-120) W84Y (Saccharomyces cerevisiae) (UniProt Q12432)
[4] = molecular target: Eaf3 chromodomain (residues 1-120) Y81A (Saccharomyces cerevisiae) (UniProt Q12432)
[5] = molecular target: Eaf3 chromodomain (residues 1-120) W88A (Saccharomyces cerevisiae) (UniProt Q12432)

- binding [1]: no binding
Substance: Eaf3 chromodomain (residues 1-120) W84A (from UniProt Q12432 1-120) (domain or fragment)

- binding [2]: no binding
Substance: Eaf3 chromodomain (residues 1-120) Q82A (from UniProt Q12432 1-120) (domain or fragment)

- binding [3]: no binding
Substance: Eaf3 chromodomain (residues 1-120) W84Y (from UniProt Q12432 1-120) (domain or fragment)

- binding [4]: no binding
Substance: Eaf3 chromodomain (residues 1-120) Y81A (from UniProt Q12432 1-120) (domain or fragment)

- binding [5]: no binding
Substance: Eaf3 chromodomain (residues 1-120) W88A (from UniProt Q12432 1-120) (domain or fragment)
